Assay results taken from publication PMC8915541.
No constants are given. Whether binding was seen depends on the method and setting. Binding seen in cells or lysates may run through a third protein. Some results given as binding are weak or reduced against the parent protein; the word gives no strength. Tags and fused reporters may be left off the sequences shown.

Amino acid sequences for entries named in this document (tags omitted).
UniProt Q14694: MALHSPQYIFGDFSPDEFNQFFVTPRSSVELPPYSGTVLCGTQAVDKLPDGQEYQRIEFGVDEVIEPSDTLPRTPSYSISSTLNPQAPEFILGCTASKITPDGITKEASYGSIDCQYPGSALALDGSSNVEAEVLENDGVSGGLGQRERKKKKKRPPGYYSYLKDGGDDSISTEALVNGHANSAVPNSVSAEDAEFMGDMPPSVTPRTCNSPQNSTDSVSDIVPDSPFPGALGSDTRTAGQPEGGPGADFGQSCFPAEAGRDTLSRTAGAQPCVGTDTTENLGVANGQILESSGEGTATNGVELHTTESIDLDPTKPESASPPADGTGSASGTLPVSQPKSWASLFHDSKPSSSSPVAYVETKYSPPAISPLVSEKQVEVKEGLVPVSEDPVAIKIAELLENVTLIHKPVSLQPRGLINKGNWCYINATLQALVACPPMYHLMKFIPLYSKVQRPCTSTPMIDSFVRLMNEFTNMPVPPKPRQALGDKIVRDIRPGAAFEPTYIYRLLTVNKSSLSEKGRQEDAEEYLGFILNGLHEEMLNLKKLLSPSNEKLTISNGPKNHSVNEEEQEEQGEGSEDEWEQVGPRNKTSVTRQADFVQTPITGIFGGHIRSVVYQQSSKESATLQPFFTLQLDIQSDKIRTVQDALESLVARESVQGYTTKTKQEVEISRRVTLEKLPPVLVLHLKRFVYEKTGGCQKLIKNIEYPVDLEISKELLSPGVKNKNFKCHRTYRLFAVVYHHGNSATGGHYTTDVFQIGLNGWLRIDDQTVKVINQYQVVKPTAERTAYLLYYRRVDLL
UniProt P35222: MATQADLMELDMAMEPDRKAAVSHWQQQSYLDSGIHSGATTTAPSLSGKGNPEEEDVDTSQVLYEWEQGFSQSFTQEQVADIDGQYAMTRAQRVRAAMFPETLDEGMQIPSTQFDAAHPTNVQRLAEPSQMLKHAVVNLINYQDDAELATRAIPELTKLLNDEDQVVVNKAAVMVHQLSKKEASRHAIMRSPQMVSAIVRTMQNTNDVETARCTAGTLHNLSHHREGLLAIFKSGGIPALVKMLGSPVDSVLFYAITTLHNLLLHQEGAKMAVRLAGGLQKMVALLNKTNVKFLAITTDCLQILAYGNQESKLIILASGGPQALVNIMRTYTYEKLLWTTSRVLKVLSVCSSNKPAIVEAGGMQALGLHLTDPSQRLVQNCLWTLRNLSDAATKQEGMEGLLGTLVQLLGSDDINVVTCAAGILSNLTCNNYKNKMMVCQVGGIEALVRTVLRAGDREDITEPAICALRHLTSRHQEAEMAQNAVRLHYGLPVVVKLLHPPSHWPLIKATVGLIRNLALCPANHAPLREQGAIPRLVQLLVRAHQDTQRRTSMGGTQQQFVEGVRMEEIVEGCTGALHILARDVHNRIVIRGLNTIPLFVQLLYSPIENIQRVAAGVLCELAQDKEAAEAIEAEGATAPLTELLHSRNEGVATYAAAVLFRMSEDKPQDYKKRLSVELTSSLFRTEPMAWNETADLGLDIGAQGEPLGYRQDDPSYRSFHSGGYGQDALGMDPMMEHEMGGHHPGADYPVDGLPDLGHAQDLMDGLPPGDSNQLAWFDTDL

T1: Histone deacetylase 7 (HDAC7) in NSCLC cells (UniProt Q8WUI4)
T1 sequence: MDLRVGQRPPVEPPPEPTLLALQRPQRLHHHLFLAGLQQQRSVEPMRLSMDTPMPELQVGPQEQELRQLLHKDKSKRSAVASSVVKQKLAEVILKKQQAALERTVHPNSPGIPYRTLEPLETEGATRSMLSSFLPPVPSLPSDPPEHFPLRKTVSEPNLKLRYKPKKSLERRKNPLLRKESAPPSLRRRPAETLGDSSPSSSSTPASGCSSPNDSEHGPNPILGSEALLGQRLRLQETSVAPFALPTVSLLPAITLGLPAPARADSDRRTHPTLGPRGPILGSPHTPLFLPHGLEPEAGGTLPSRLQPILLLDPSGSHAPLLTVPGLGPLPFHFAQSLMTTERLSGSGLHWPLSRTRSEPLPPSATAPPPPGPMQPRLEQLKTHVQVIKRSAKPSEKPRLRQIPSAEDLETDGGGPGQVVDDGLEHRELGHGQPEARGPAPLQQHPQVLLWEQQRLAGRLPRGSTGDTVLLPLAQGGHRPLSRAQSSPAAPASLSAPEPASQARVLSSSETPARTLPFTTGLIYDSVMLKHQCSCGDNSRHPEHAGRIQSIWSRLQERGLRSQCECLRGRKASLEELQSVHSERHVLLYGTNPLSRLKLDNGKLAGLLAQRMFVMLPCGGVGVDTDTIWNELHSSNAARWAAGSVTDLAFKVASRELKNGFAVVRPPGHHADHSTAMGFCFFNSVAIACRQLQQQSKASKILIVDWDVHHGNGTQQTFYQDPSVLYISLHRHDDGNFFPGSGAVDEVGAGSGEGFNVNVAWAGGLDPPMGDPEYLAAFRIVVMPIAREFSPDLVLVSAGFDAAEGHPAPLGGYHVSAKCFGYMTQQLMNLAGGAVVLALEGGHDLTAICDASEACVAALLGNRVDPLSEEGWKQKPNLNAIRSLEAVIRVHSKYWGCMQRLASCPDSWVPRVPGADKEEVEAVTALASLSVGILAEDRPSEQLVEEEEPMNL


Tests used:
[1] = target: T1, Histone deacetylase 7 (HDAC7) in NSCLC cells; assay: co-IP; HDAC7 and β-catenin in NSCLC cells; whole cell lysates in EBC buffer (50 mM Tris-HCl pH 7.5, 120 mM NaCl, 0.5% NP-40), beads washed 4 times with NETN buffer, western blotting; precipitating antibody not given
[2] = target: Ubiquitin-specific peptidase 10 (USP10) in NSCLC cells (human (endogenous in NSCLC cell lines)) (UniProt Q14694); assay: co-IP; HDAC7 overexpressing cells; lysate incubated with anti-USP10 antibody overnight at 4 °C, Protein G magnetic beads, NETN washes, normal IgG as negative control; blot for HDAC7

binding [1]	binding [2]	Molecule
binds	–	β-catenin (from UniProt P35222 1-781)
–	binds	Flag-HDAC7 in HDAC7 overexpressing NSCLC cells (protein, UniProt Q8WUI4 1-952) MDLRVGQRPPVEPPPEPTLLALQRPQRLHHHLFLAGLQQQRSVEPMRLSMDTPMPELQVGPQEQELRQLLHKDKSKRSAVASSVVKQKLAEVILKKQQAALERTVHPNSPGIPYRTLEPLETEGATRSMLSSFLPPVPSLPSDPPEHFPLRKTVSEPNLKLRYKPKKSLERRKNPLLRKESAPPSLRRRPAETLGDSSPSSSSTPASGCSSPNDSEHGPNPILGSEALLGQRLRLQETSVAPFALPTVSLLPAITLGLPAPARADSDRRTHPTLGPRGPILGSPHTPLFLPHGLEPEAGGTLPSRLQPILLLDPSGSHAPLLTVPGLGPLPFHFAQSLMTTERLSGSGLHWPLSRTRSEPLPPSATAPPPPGPMQPRLEQLKTHVQVIKRSAKPSEKPRLRQIPSAEDLETDGGGPGQVVDDGLEHRELGHGQPEARGPAPLQQHPQVLLWEQQRLAGRLPRGSTGDTVLLPLAQGGHRPLSRAQSSPAAPASLSAPEPASQARVLSSSETPARTLPFTTGLIYDSVMLKHQCSCGDNSRHPEHAGRIQSIWSRLQERGLRSQCECLRGRKASLEELQSVHSERHVLLYGTNPLSRLKLDNGKLAGLLAQRMFVMLPCGGVGVDTDTIWNELHSSNAARWAAGSVTDLAFKVASRELKNGFAVVRPPGHHADHSTAMGFCFFNSVAIACRQLQQQSKASKILIVDWDVHHGNGTQQTFYQDPSVLYISLHRHDDGNFFPGSGAVDEVGAGSGEGFNVNVAWAGGLDPPMGDPEYLAAFRIVVMPIAREFSPDLVLVSAGFDAAEGHPAPLGGYHVSAKCFGYMTQQLMNLAGGAVVLALEGGHDLTAICDASEACVAALLGNRVDPLSEEGWKQKPNLNAIRSLEAVIRVHSKYWGCMQRLASCPDSWVPRVPGADKEEVEAVTALASLSVGILAEDRPSEQLVEEEEPMNL
